Values from PubChem BioAssay AID652259 (Drosophila RNAi Screening Center, 2013)
Aim: 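Genome-wide hunt for genes that control Wingless pathway activity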 (primary screen). Cells: Drosophila clone 8 imaginal disc epithelial cells. Knock-down reagent: long dsRNA against Drosophila genes. Treatment: pathway stimulated by co-transfected Wingless expression plasmid. Measured: 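Firefly luciferase from a tcf-site Wingless reporter, measured alongside co-transfected Renilla luciferase that tracks transfection; pathway stimulated by a Wingless plasmid; the firefly-to-Renilla ratio is not deposited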. Scale: firefly reporter light: higher = more Wg reporter light, before normalisation; Renilla control light: higher = more transfected or surviving cells. Hit rule: 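Strong candidates differ from their plate mean by at least two out of four per-plate statistical tests; weak candidates meet just one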. Calls: active = candidate regulator (raises or lowers reporter); inactive = not a candidate.
In all, the deposit lists about 22,000 reagents; below is an unselected part of those that have a named target and a result. Of all reagents, 233 (1.1%) were called active. 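Light values are raw, unnormalised plate reads; the ratio scores behind the reporter calls were not deposited.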 Not stated in the record: the amount of reagent, the time to read-out, the dose of the treatment.

reporter change call, replicate 1 | firefly reporter light, replicate 1 | firefly reporter light, replicate 2 | Renilla control light, replicate 1 | Renilla control light, replicate 2 | outcome | target | amplicon
– | 3939 | 9136 | 1729 | 4032 | inactive | Jhbp14 (Juvenile hormone binding protein 14) | DRSC01988
– | 5361 | – | 2218 | – | inactive | ldbr (lariat debranching enzyme) | DRSC10933
– | 18019 | – | 4568 | – | inactive | CG11694 | DRSC14354
– | 20762 | – | 16100 | – | inactive | CG2126 | DRSC15418
– | 3809 | 7401 | 1505 | 2297 | inactive | Zw10 (Zeste-white 10) | DRSC18793
– | 23784 | – | 2633 | – | inactive | Xpd (Xeroderma pigmentosum D) | DRSC04666
– | 10184 | – | 5336 | – | inactive | Rbsn-5 (Rabenosyn-5) | DRSC03094
– | 5962 | – | 2006 | – | inactive | Ir56c (Ionotropic receptor 56c) | DRSC06544
– | 3050 | – | 1969 | – | inactive | CG33796 | DRSC09417
– | 2177 | 8086 | 624 | 3208 | inactive | CG10700 | DRSC02096
– | 1988 | 6569 | 525 | 1769 | inactive | su(r) (suppressor of rudimentary) | DRSC18705
– | 19248 | – | 10185 | – | inactive | Coa7 (Cytochrome c oxidase assembly factor 7) | DRSC20967
– | 4887 | – | 826 | – | inactive | CG31058 (retired record) | DRSC15840
– | 6373 | – | 2914 | – | inactive | CG32262 | DRSC08165
– | 15853 | – | 5703 | – | inactive | CG31454 | DRSC14365
– | 5.22e5 | 5.66e5 | 2.40e5 | 3.12e5 | inactive | CG31454 | DRSC22801
– | 3297 | 4195 | 1286 | 2307 | inactive | pkaap | DRSC01925
– | 23056 | – | 8951 | – | inactive | CG9215 | DRSC20171
– | 2761 | 6787 | 820 | 3340 | inactive | CG18659 | DRSC06784
– | 13416 | – | 3536 | – | inactive | Edg91 (Ecdysone-dependent gene 91) | DRSC16657
– | 7543 | – | 2843 | – | inactive | MnM (myomesin and myosin binding protein) | DRSC08423
– | 10994 | – | 2979 | – | inactive | Mlc1 (Myosin alkali light chain 1) | DRSC16740
– | 15861 | – | 11221 | – | inactive | Cad96Ca (Cadherin 96Ca) | DRSC14220
– | 17549 | – | 14448 | – | inactive | Cad96Ca (Cadherin 96Ca) | DRSC16693
– | 9604 | – | 4458 | – | inactive | CG16799 | DRSC06626
– | 5.57e5 | 5.27e5 | 2.58e5 | 2.14e5 | inactive | CG16799 | DRSC21553
– | 2684 | 6948 | 968 | 3261 | inactive | Or30a (Odorant receptor 30a) | DRSC03385
– | 1336 | 5490 | 833 | 2018 | inactive | Appl (beta amyloid protein precursor-like) | DRSC17728
– | 2309 | 5491 | 928 | 2272 | inactive | Myo95E (Myosin 95E) | DRSC15821
– | 10754 | – | 1504 | – | inactive | Lgr1 (Leucine-rich repeat-containing G protein-coupled receptor 1) | DRSC16675
– | 26332 | – | 19313 | – | inactive | mah (mahogany) | DRSC14645
– | 4432 | – | 2214 | – | inactive | Oseg1 (Outer segment 1) | DRSC10776
– | 4033 | 8391 | 1206 | 4269 | inactive | Mco1 (Multicopper oxidase 1) | DRSC02720
– | 7792 | – | 876 | – | inactive | CG34256 | DRSC09582
– | 982 | 6172 | 1104 | 3178 | inactive | CG42747 | DRSC10209
– | 1773 | 5729 | 1339 | 1769 | inactive | CG42747 | DRSC10210
– | 15456 | – | 4107 | – | inactive | CG8060 | DRSC07064
– | 3056 | 7793 | 1098 | 1756 | inactive | CG9747 | DRSC16554
– | 1782 | 6666 | 759 | 3072 | inactive | CG13398 | DRSC02268
– | 2299 | 5303 | 1296 | 2544 | inactive | CG4045 | DRSC18518
Wg reporter activity raised | 12737 | – | 1181 | – | active | Hs3st-A (Heparan sulfate 3-O sulfotransferase-A) | DRSC06507
– | 7943 | – | 2012 | – | inactive | Hs3st-A (Heparan sulfate 3-O sulfotransferase-A) | DRSC06508
– | 7954 | – | 2113 | – | inactive | Hs3st-A (Heparan sulfate 3-O sulfotransferase-A) | DRSC06509
– | 5781 | – | 2119 | – | inactive | CG14740 | DRSC14960
– | 3005 | 6448 | 945 | 1686 | inactive | Taf10b (TBP-associated factor 10b) | DRSC00792
– | 13910 | – | 4160 | – | inactive | CG14324 | DRSC14803
– | 2289 | 5893 | 936 | 2832 | inactive | Arglu1 (Arginine and glutamate rich 1) | DRSC02909
– | 3668 | – | 985 | – | inactive | Alp9 (Alkaline phosphatase 9) | DRSC10486
– | 3682 | – | 2529 | – | inactive | lncRNA:CR43451 (long non-coding RNA:CR43451) | DRSC13352
